Data: article doi:10.1101/2025.08.03.668247
For some assays here: The exact form of at least one protein or probe is not confirmed.

Amino acid sequences for entries named in this document (tags omitted). A change or cut given only in a name is not applied to a line headed by its entry.
UniProt Q9W1K4: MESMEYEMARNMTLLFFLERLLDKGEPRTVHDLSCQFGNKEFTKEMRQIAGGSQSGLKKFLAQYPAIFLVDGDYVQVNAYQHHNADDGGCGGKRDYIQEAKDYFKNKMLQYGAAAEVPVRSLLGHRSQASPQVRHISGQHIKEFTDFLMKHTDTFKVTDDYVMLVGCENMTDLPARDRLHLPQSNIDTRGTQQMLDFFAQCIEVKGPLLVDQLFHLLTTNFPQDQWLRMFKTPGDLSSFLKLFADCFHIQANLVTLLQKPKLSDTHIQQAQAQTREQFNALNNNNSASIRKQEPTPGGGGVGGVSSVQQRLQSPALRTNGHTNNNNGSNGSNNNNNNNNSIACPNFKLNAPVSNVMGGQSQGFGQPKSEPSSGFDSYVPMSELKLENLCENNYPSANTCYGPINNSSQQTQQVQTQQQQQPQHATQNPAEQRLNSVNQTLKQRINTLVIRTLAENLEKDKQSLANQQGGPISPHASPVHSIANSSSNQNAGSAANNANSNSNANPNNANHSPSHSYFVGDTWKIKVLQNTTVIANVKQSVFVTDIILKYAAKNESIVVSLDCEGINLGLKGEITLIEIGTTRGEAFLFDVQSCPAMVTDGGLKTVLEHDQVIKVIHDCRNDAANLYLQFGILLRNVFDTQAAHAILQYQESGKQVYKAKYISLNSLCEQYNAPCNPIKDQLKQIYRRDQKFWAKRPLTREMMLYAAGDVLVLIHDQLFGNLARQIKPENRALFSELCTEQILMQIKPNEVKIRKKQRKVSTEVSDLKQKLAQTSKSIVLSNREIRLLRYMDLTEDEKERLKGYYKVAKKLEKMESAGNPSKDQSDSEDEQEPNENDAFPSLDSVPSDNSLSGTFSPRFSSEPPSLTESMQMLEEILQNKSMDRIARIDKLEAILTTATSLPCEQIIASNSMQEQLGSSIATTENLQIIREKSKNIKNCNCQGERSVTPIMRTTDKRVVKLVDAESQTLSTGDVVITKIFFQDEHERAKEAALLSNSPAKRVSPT

How the values were obtained:
[1] = target: GST-Egl512-819 (Drosophila melanogaster) (UniProt Q9W1K4); assay: competition with a labelled probe; conditions: vs FAM-K10 TLS; residues 512-819
[2] = target: EXO (Egl512-751) (Drosophila melanogaster) (UniProt Q9W1K4); assay: fluorescence anisotropy; conditions: no binding detected up to 5 uM; residues 512-751
[3] = target: Egl512-819 untagged (Drosophila melanogaster) (UniProt Q9W1K4); assay: fluorescence anisotropy; conditions: untagged, value assigned from figure text; residues 512-819

Sequence | IC50 [1] [nM] | Kd [2] [nM] | Kd [3] [nM]
CUUGAUUGUAUUUUUAAAUUAAUUCUUAAAAAUACAAUUAAG [K10-Delta b1b2] | 64 |  | 
CUUGAUUGUAUUUUUAAAUUAAUUCUUAAAAACUACAAAUUAAG [K10 TLS (FAM)] |  | > 5000 | 162
UGAGUGCCAGAAGCUGCCUC / GAGGCAGCUUCUGGCACUCA [dsRNA] | 102 |  | 
GAAUUAAACAUCAAAAAUUCUUAAUUAAAUUUUUAUGUUAGUUC [K10-as] | 80 |  | 
